Assay results from article PMC5427921, “PRL3 phosphatase active site is required for binding the putative magnesium transporter CNNM3” (Scientific Reports, 2017).
These are yes or no findings as the source states them, for the method shown. Some results given as binding are weak or reduced against the parent protein; the word gives no strength.

By UniProt entry, the sequences of proteins in these tests, tags left out. Where a name states a change or a piece, a line headed by the entry shows the natural chain unless it says otherwise. Chains listed by the source or under a name are the forms on record and can include a tag or linker. Residues count along the entry.
UniProt Q8NE01, residues 309-452: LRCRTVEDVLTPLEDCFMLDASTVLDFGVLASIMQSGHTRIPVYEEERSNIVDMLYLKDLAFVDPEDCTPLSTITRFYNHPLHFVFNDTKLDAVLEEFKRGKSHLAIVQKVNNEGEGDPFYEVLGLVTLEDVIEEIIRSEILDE
PRL3 with Arg138 mutated to alanine (O75365, form named): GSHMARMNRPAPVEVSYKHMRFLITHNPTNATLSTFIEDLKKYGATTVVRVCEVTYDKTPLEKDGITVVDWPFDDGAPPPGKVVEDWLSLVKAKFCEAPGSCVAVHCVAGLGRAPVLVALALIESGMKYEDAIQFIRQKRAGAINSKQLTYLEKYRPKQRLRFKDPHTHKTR
PRL3 D72A (O75365, form named): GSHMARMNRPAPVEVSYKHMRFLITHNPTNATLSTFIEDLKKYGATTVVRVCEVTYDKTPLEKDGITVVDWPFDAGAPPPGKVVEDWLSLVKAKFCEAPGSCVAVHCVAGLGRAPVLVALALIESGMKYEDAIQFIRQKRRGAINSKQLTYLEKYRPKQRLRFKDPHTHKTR
PRL3 with the catalytic cysteine (Cys104) mutated to glutamic acid (O75365, form named): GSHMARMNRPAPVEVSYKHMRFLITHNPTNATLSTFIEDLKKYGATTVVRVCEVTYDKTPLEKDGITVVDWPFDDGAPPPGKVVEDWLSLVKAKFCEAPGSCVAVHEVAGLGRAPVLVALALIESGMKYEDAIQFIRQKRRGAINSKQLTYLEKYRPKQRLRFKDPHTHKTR
PRL3 R138E (O75365, form named): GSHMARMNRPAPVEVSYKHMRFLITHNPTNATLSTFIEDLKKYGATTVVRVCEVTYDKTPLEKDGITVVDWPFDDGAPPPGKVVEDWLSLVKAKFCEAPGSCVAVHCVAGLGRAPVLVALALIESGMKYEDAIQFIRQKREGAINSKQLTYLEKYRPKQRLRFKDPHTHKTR
PRL3 A111S (O75365, form named): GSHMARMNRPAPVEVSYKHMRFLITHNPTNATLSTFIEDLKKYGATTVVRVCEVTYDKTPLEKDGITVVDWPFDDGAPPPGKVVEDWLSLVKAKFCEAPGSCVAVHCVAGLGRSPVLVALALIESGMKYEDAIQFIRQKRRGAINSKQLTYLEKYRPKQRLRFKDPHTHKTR
PRL3 C104A (O75365, form named): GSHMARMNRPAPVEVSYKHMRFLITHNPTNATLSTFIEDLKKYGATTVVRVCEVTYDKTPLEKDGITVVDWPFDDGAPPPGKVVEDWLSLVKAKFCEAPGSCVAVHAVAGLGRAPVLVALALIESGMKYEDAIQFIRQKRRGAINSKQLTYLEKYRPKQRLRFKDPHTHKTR

Each substance was assayed against CNNM3 CBS-pair domain as a GST fusion (human) (UniProt Q8NE01) (assay: ITC; syringe 160 μM PRL2 or PRL3, cell 16 μM CNNM3 CBS-pair domain as a GST fusion; 22 °C; 30 injections of 10 μl; fitted to a single set of identical sites; both purified).

| Substance | binding |
| --- | --- |
| PRL3 with Arg138 mutated to alanine (from UniProt O75365 1-169) (enzyme) | binds |
| PRL3 D72A (from UniProt O75365 1-169) (enzyme) | binds |
| PRL3 with the catalytic cysteine (Cys104) mutated to glutamic acid (from UniProt O75365 1-169) (enzyme) | binds weakly |
| PRL3 R138E (from UniProt O75365 1-169) (enzyme) | binds weakly |
| PRL3 A111S (from UniProt O75365 1-169) (enzyme) | binds |

What follows are substances tested against CBS-pair domain of human CNNM3 (GST tag removed) (human) (UniProt Q8NE01) (assay: crystal structure; PRL3 C104A•CNNM3 CBS-pair domain; 1:1 mixture (1 mg/ml), hanging drops, 293 K; 20 mM HEPES pH 7.0, 100 mM NaCl, 5 mM TCEP over 0.064 M sodium citrate, 15% PEG5000 MME, 0.1 M HEPES pH 7.0; both purified).

| Substance | binding |
| --- | --- |
| PRL3 C104A (from UniProt O75365 1-169) (enzyme) | binds |
